PubChem BioAssay AID504804 – Drosophila RNAi Screening Center | 2011

- Test: 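dsRNAs that improve Kc cell survival under doxorubicin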 (primary screen)
- System: Drosophila Kc cells
- Reagent: long dsRNA against Drosophila genes, 0.5 µg dsRNA per well
- Time to read-out: 96 h (48 h knock-down, then 48 h drug)
- Challenge: doxorubicin 5 µg/ml for 48 h, added 48 h after dsRNA
- Detection: 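Luminescent ATP counts per replicate, not normalised, reflecting viable cells after 48 h dsRNA knock-down followed by 48 h of 5 µg/ml doxorubicin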
- Reading the numbers: raw ATP luminescence: higher = more viable cells, protection from doxorubicin
- Hit rule: 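z-score of 2 or more over plate mean in both duplicates, retained only when retests and separate dsRNAs confirm the protection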
In all, the deposit lists about 19,000 reagents; shown is an unselected part of those with a known target gene and a result. Of all reagents, 47 (0.25%) were called active. 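Signals are raw, not normalised; exact z-scores behind calls not deposited; actives needed confirmation, so some wells reaching 2 SD are inactive.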 Entries without a mark were called inactive. A plus sign joins genes that one reagent is predicted to hit. Reagent sequences are not shown.

The first 5 records, ahead of the listing:
no.	gene knocked down	dsRNA	raw ATP luminescence, replicate 1	raw ATP luminescence, replicate 2
1	CG13712 (GeneID 38574)	DRSC08321	78030	81940
2	CG4982 (GeneID 39794)	DRSC10465	1.91e5	1.88e5
3	CG12164 (GeneID 35651)	DRSC06115	65433	66803
4	CG3308 (GeneID 42527)	DRSC15474	47490	42310
5	CG42795 (GeneID 41252)	DRSC12772	72850	89660

The list itself, repeating the preview:
no.	gene knocked down	dsRNA	raw ATP luminescence, replicate 1	raw ATP luminescence, replicate 2
1	CG13712 (GeneID 38574)	DRSC08321	78030	81940
2	CG4982 (GeneID 39794)	DRSC10465	1.91e5	1.88e5
3	CG12164 (GeneID 35651)	DRSC06115	65433	66803
4	CG3308 (GeneID 42527)	DRSC15474	47490	42310
5	CG42795 (GeneID 41252)	DRSC12772	72850	89660
6	CG42795 (GeneID 41252)	DRSC15533	66717	52003
7	CG9702 (GeneID 43634)	DRSC16540	52790	50610
8	h-cup + Rbp	DRSC14990	94080	78350
9	CG14434 (GeneID 31632)	DRSC17927	42230	54900
10	CG11370 (GeneID 40486)	DRSC11653	52790	47543
11	CG14417 (GeneID 31274)	DRSC18638	63090	43970
12	CG32450 (GeneID 318034)	DRSC11546	50750	43810
13	CG34129 (GeneID 43181)	DRSC15960	71520	65160
14	CG9743 (GeneID 43593)	DRSC16552	31540	36900
15	CG34430 (GeneID 5740489)	DRSC06499	46890	80547
16	CG15773 (GeneID 31494)	DRSC18079	43210	43800
17	CG32221 (GeneID 317924)	DRSC09638	62700	60410
18	Ote (GeneID 37090)	DRSC07498	61140	63423
19	drl (GeneID 44355)	DRSC03523	94267	64490
20	CG42490 (retired record) (GeneID 8674118)	DRSC01649	2.42e5	2.28e5
21	St1 (GeneID 37742)	DRSC04504	66080	48273
22	ng3 (GeneID 31299)	DRSC18804	59840	73190
23	CG30395 (GeneID 246589)	DRSC03896	63317	61753
24	CG16903 (GeneID 31178)	DRSC18561	58190	60470
25	mEFTs (GeneID 35060)	DRSC02953	1.06e5	68517
26	Nha2 (GeneID 42710)	DRSC14689	73610	81580
27	Nha2 (GeneID 42710)	DRSC15619	29853	34647
28	Nha2 (GeneID 42710)	DRSC15623	68250	67650
29	Zip89B (GeneID 41975)	DRSC16128	50620	64540
30	CG12236 (GeneID 31523)	DRSC17831	40270	41960
31	CG7201 (GeneID 38929)	DRSC10786	68357	67193
32	ocm (GeneID 37874)	DRSC04360	49227	46407
33	CG30089 (GeneID 36736)	DRSC06126	57107	57677
34	CG30089 (GeneID 36736)	DRSC06268	1.73e5	1.90e5
35	sei (GeneID 37843)	DRSC04713	56463	59390
36	mlt (GeneID 36072)	DRSC06120	56257	55000
37	CG12147 (GeneID 40651)	DRSC12192	66730	67000
38	l(2)dtl (GeneID 46326)	DRSC04697	67230	51863
39	CG4461 (GeneID 39074)	DRSC10423	82630	69327
40	RpL7A (GeneID 31588)	DRSC18709	20520	24830
41	fal (GeneID 43927)	DRSC11087	33597	26837
42	Tspo (GeneID 33231)	DRSC00533	1.18e5	67373
43	otu (GeneID 31789)	DRSC18811	35320	40410
44	CG15553 (GeneID 43677)	DRSC15091	51080	46360
45	Swip-1 (GeneID 35158)	DRSC02083	74620	63967
46	Swip-1 (GeneID 35158)	DRSC02084	63067	77280
47	CG9630 (GeneID 40974)	DRSC16527	60630	28913
48	rg (GeneID 44531)	DRSC17377	2.49e5	2.65e5
49	rg (GeneID 44531)	DRSC18049	45880	42310
50	trp (GeneID 43542)	DRSC17088	54350	43330
51	Zip48C (GeneID 36273)	DRSC06314	52417	43397
52	CG17826 (GeneID 39354)	DRSC10289	79093	68587
53	Ppt1 (GeneID 31805)	DRSC17806	47430	43830
54	CG1889 + CG43386	DRSC17979	3.44e5	3.44e5
55	Lsp1gamma (GeneID 38015)	DRSC08672	85990	65673
56	ghi (GeneID 317833)	DRSC08985	1.41e5	1.71e5
57	CG15237 (GeneID 35591)	DRSC04971	44847	96537
